From paper PMC4459106
No constants are given. Whether binding was seen depends on the method and setting.

Biological target: T1, Active ERK2 (ppERK2), dually phosphorylated on T183 and Y185 (rat (rat ERK2 numbering used throughout)), P63086
T1 chain: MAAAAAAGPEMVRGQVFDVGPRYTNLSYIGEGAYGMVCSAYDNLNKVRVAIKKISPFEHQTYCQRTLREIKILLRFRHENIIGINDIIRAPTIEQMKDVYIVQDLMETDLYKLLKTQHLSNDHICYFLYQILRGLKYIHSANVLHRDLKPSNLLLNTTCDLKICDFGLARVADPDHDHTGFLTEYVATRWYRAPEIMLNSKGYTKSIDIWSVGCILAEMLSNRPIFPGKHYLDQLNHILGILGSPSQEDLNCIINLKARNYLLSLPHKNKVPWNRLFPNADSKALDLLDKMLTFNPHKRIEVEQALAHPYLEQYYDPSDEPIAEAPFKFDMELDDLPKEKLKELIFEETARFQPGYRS
Assay: 15N T2 relaxation NMR; 200 μM 2H,13C,15N-labeled ppERK2 with 2 mM Elk_(387-399); 20 mM MES pH 6.4, 150 mM NaCl, 2 mM DTT, 200 μM EDTA; 25 °C, 600 MHz; both purified
Conditions: remark: other sources report otherwise

binding: no binding (tested: 200 μM)
B1: Active ERK2 (ppERK2), dually phosphorylated on T183 and Y185, P63086 1-358 (enzyme)
chain: MAAAAAAGPEMVRGQVFDVGPRYTNLSYIGEGAYGMVCSAYDNLNKVRVAIKKISPFEHQTYCQRTLREIKILLRFRHENIIGINDIIRAPTIEQMKDVYIVQDLMETDLYKLLKTQHLSNDHICYFLYQILRGLKYIHSANVLHRDLKPSNLLLNTTCDLKICDFGLARVADPDHDHTGFLTEYVATRWYRAPEIMLNSKGYTKSIDIWSVGCILAEMLSNRPIFPGKHYLDQLNHILGILGSPSQEDLNCIINLKARNYLLSLPHKNKVPWNRLFPNADSKALDLLDKMLTFNPHKRIEVEQALAHPYLEQYYDPSDEPIAEAPFKFDMELDDLPKEKLKELIFEETARFQPGYRS
modifications: here or on the partner: phosphothreonine at T183, phosphotyrosine at Y185; phosphothreonine at T183, phosphotyrosine at Y185
